The test system of this assay is eIF2-GTP-Met-tRNAi ternary complex. The experiment in a line: Ternary complex assay (dual luciferase, firefly/renilla ratio) in stable KLN-tTA/pBISA-DL(ATF-4) cells; HTS and hit confirmation. Conditions: confirmed hits of the screen (Table 5). Type of assay: cell-based, mouse. The arrangement: unit not given here. An excerpt: For assay development, a bi-directional plasmid was designed in which a common promoter/enhancer complex drives the transcription of firefly luciferase (F-luc) ORF fused to the 5′ untranslated region (UTR) of ATF-4, and of the renilla luciferase (R-luc) ORF fused to a 90-nucleotide 5′ UTR derived from the plasmid (FIG. 6A). Because the tetracycline-regulated transactivator ((tTA), required for driving transcription from this vector) is not normally expressed in the mammalian cells, stable KLN cancer cells were constructed that expressed tTA (KLN-tTA).
The KLN-tTA colonies that drove expression of reporter genes from pBISA-DL plasmid were selected by transient transfection and dual luciferase assay. […]
Screening was conducted in 384 well white opaque plates (Nalge Nunc), 100 μl volume RPMI+10% fetal bovine serum. […] Firefly luciferase reporter activity was then read by the addition of thirty microliters of Dual Glo Luciferase reagent (Promega), followed by one hour incubation at room temperature to allow for adequate signal buildup. Luminescence counting was conducted on a Microbeta Trilux using a 1 second read time. Renilla luciferase reporter activity was measured following addition of 30 μl Stop and Glo Luciferase reagent (Promega) and incubation identical to the one carried out for the firefly luciferase one. […]

The results in this text go back to patent publication US9932300B2, “N,N′-diarylurea compounds and N,N′-diarylthiourea compounds as inhibitors of translation initiation” (President and Fellows of Harvard College, priority 2009, dated 2018).

For `O=C(/C=C/c1ccccc1)Nc1ccccc1Cl` [Compound 191390], the “Activity 5 uM” value (compound at 5 uM) is recorded as 3.71. For the same compound, the “Activity 10 uM” value (compound at 10 uM) turned out to be 4.295.
